The IC50 is the point on the concentration scale where inhibition reaches its midpoint. Low values mean greater potency, high ones weaker potency.

The data set concerns HCT-8 cells. As to the kind of experiment: Compound cytotoxicity assay (WST-1) in HCT-8 cells. The format is cell-based, human. How it is done:
Compound cytotoxicity assay. […] A colorimetric assay using the cell proliferation reagent WST-1 (Roche, USA) for the quantification of cell viability was performed. […] When the cells were confluent, the old medium was replaced with fresh medium with or without varying concentrations of chemical compound. After 24 h of culture, 10 μl of the cell proliferation reagent WST-1, (for quantification of cell viability) was added to each well, mixed and the plates incubated for 1 h at 37 C with 5% CO2 in the dark. […] Molecular Devices, USA).

`COc1cc2c(c(OC)c1OC)-c1ccc(OC)c(=O)cc1[C@@H](N)CC2` [NSC36354] showed an IC50 of 81.8 µM.

The values above are taken from patent US20250387359A1, “COMPOUNDS AND METHODS FOR THE TREATMENT OF PARASITIC INFECTIONS” (THE BOARD OF TRUSTEES OF THE UNIVERSITY OF ILLINOIS, priority 2019, published 2025).
